Patent US6517846B2, “Cosmetic composition” (Kyowa Hakko Kogyo Co., Ltd., priority 2000, dated 2003)
Where a name gives a salt, the structure may show the parent alone.

Test system: human subjects (washing hands)
Conditions: mean n = 5; for Foaming power (during use), average score: grades 1-5 scored −5, −1.5, 0, 1.5, 5, 1 Very little; for Foaming power (during use), average score / Foam breakage (after use), average score: 5 Excellent; for Feeling after use, average score / Wash feeling (during use), average score / Satisfaction rating, average score / Texture in foams (during use), average score / Feeling of foams (during use), average score / Foam breakage (after use), average score / Odor (after use), average score / Odor (during use), average score: grades scored −5 to 5; for Feeling after use, average score: 1 Dry, 5 Moist; for Wash feeling (during use), average score: 1 Frictional, 5 Smooth; for Satisfaction rating, average score: 1 Not preferred for use, 5 Preferred for use; for Texture in foams (during use), average score: 1 Rough, 5 Very fine; for Feeling of foams (during use), average score: 1 Soft (Light), 5 Creamy (Heavy); for Foam breakage (after use), average score: 1 Unsatisfactory; for Odor (after use), average score / Odor (during use), average score: 1 Very strong, 5 Very light

CCCCCCCCCCCC(=O)NCCC(=O)O [LBA, sodium salt of lauroyl β-alanine]
Foaming power (during use), average score: −2.4
Feeling after use, average score: 0.6
Wash feeling (during use), average score: 0.6
Satisfaction rating, average score: −0.6
Texture in foams (during use), average score: −2.4
Feeling of foams (during use), average score: −1.8
Foam breakage (after use), average score: −1.2
Odor (after use), average score: 1.2
Odor (during use), average score: −1.2

Triethanolamine N-Cocoyl-L-glutaminate [GMT]
Foaming power (during use), average score: 1.5
Feeling after use, average score: −0.9
Wash feeling (during use), average score: 1.8
Satisfaction rating, average score: 0
Texture in foams (during use), average score: −0.3
Feeling of foams (during use), average score: −1.2
Foam breakage (after use), average score: −0.6
Odor (after use), average score: 1.2
Odor (during use), average score: 0.9

triethanolamine N-cocoyl glutamate [GAT]
Foaming power (during use), average score: 2.4
Feeling after use, average score: 0
Wash feeling (during use), average score: 1.2
Satisfaction rating, average score: −1.2
Texture in foams (during use), average score: 1.5
Feeling of foams (during use), average score: 0.6
Foam breakage (after use), average score: 1.2
Odor (after use), average score: −1.8
Odor (during use), average score: −1.8
